# Data reported in PMC3591345, “A Novel Single-Strand Specific 3′–5′ Exonuclease Found in the Hyperthermophilic Archaeon, Pyrococcus furiosus”.
# The comparison behind a weaker result is the experiment's own reference, which may not be listed here. Protein sequences can lack the tags named with them.
# Target: T1, PfuExo I (Pyrococcus furiosus) (UniProt Q8TZE9)
# T1 sequence (looked up): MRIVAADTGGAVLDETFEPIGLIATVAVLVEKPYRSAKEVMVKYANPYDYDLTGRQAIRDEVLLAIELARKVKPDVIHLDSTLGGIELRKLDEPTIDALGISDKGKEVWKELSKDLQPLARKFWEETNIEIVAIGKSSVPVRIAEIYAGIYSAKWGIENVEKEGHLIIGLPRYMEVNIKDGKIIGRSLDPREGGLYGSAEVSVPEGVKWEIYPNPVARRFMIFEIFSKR
# Test: EMSA
# Conditions: no Mg2+, 0.1 mM EDTA, 1-1000 nM protein, 0.1% glutaraldehyde fixation, slight shifts, 20 mM triethanolamine (pH not stated), 50 mM NaCl, 0.1 mg/ml BSA, 2.5 nM DNA, 20 min at 37 C, then 0.1% glutaraldehyde, 4.5% native PAGE, recombinant protein, residues 1-229, label: 32P (5')
sequence,measurement,value
AGCTACCATGCCTGCACGAATTAAGCAATTCGTAATCATGGTCATAGCT (double strand) [dsDNA d49F/d49R],binding result,binds more weakly
